PubChem BioAssay AID493246 | Drosophila RNAi Screening Center, 2011
In all, the deposit lists about 21,000 reagents; below is an unselected part of those that have a named target and a result. In the full data, 429 (2%) are marked active. 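Values are raw and not normalised between plates; calls rest on per-plate z-scores that were not deposited.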 Unmarked entries are inactive. A plus sign joins genes that one reagent is predicted to hit. The record does not give: the amount of reagent, the time to read-out.

- Assay: 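Genome-wide search for dsRNAs that reduce cell number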 (primary screen)
- System: Drosophila Kc and S2R+ cells
- Reagent: long dsRNA against Drosophila genes
- Measured: 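Raw, unnormalised count of remaining cells in each well; per-plate z-scores of cell number underlie the calls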
- Scale: Kc cell number and S2R+ cell number: higher = more cells remaining
- Active means: 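Counted as a hit if cell number falls by a z-score of at least 3 within its plate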

Target gene	dsRNA	Kc cell number, rep 1	Kc cell number, rep 2	S2R+ cell number, rep 1	S2R+ cell number, rep 2
mRpS10 (mitochondrial ribosomal protein S10)	DRSC15557	1.03e6	1.06e6	1.10e6	1.23e6
CG34265	DRSC08030	1.59e6	1.44e6	1.01e6	1.18e6
CG15870	DRSC06588	1.57e6	1.54e6	1.17e6	1.25e6
HP1D3csd (Heterochromatin Protein 1D3 chromoshadow domain)	DRSC19548	1.60e6	1.47e6	9.96e5	1.19e6
CG11131	DRSC11636	1.58e6	1.74e6	1.46e6	1.51e6
Tgi (Tondu-domain-containing Growth Inhibitor)	DRSC09793	1.28e6	1.38e6	1.27e6	1.39e6
Tgi (Tondu-domain-containing Growth Inhibitor)	DRSC09794	1.30e6	1.47e6	1.25e6	1.34e6
CG11251	DRSC09825	1.46e6	1.68e6	1.45e6	1.59e6
CG14326	DRSC14805	1.36e6	1.44e6	1.02e6	1.06e6
CG13062	DRSC09945	1.51e6	1.43e6	1.19e6	1.38e6
Sulf1 (Sulfated)	DRSC16874	1.32e6	1.42e6	1.17e6	1.31e6
CG15814	DRSC19730	1.71e6	1.78e6	1.03e6	1.17e6
CG14881	DRSC15005	1.33e6	1.46e6	1.21e6	1.38e6
KP78a + KP78b	DRSC16721	1.49e6	1.47e6	1.23e6	1.29e6
KP78a + KP78b	DRSC16722	1.47e6	1.47e6	1.19e6	1.27e6
slgA (sluggish A)	DRSC20586	1.51e6	1.54e6	1.04e6	1.16e6
CG14740	DRSC14960	1.49e6	1.57e6	1.31e6	1.33e6
shrb (shrub)	DRSC07061	5.33e5 (active)	7.01e5	5.20e5	5.27e5
CG14180 (retired record)	DRSC10179	1.07e6	1.13e6	8.01e5	9.01e5
CG1409	DRSC17910	1.53e6	1.41e6	1.10e6	1.23e6
wwk (white walker)	DRSC01941	1.72e6	1.93e6	1.24e6	1.35e6
CG14545	DRSC14889	1.61e6	1.55e6	1.01e6	1.12e6
klhl10 (kelch like family member 10)	DRSC05274	1.49e6	1.50e6	1.07e6	1.19e6
klhl10 (kelch like family member 10)	DRSC19171	1.41e6	1.69e6	1.19e6	1.27e6
klhl10 (kelch like family member 10)	DRSC20750	1.44e6	1.48e6	1.10e6	1.20e6
klhl10 (kelch like family member 10)	DRSC20925	1.60e6	1.66e6	1.17e6	1.29e6
Ddrgk1 (DDRGK domain containing 1)	DRSC15897	1.55e6	1.65e6	1.21e6	1.29e6
CG17636	DRSC20648	1.40e6	1.45e6	1.06e6	1.14e6
Had1 (beta Hydroxy acid dehydrogenase 1)	DRSC20216	1.52e6	1.55e6	1.15e6	1.28e6
SelR (Selenoprotein R)	DRSC16071	1.62e6	1.69e6	1.35e6	1.47e6
NimC4 (Nimrod C4)	DRSC01945	1.49e6	1.50e6	1.27e6	1.39e6
SNF4Agamma (SNF4/AMP-activated protein kinase gamma subunit)	DRSC13461	1.49e6	1.44e6	1.06e6	1.10e6
SNF4Agamma (SNF4/AMP-activated protein kinase gamma subunit)	DRSC13463	1.47e6	1.41e6	1.02e6	1.13e6
SNF4Agamma (SNF4/AMP-activated protein kinase gamma subunit)	DRSC15879	1.27e6	1.34e6	8.40e5	9.92e5
SNF4Agamma (SNF4/AMP-activated protein kinase gamma subunit)	DRSC16847	1.90e6	1.97e6	1.52e6	1.56e6
Naus (Nausicaa)	DRSC06011	1.35e6	1.60e6	1.25e6	1.22e6
Naus (Nausicaa)	DRSC06469	1.47e6	1.57e6	1.05e6	1.10e6
CG14424	DRSC18472	1.47e6	1.42e6	1.02e6	1.15e6
ph-p (polyhomeotic proximal)	DRSC18820	1.66e6	1.73e6	1.05e6	1.17e6
CG4960	DRSC15684	1.59e6	1.49e6	9.54e5	1.03e6
Lpin (Lipin)	DRSC07241	1.35e6	1.43e6	1.15e6	1.23e6
CG17377	DRSC00950	1.51e6	1.50e6	1.07e6	1.20e6
CG17377	DRSC02615	1.27e6	1.34e6	6.57e5	8.62e5
Jon66Ci (Jonah 66Ci)	DRSC10772	1.40e6	1.42e6	1.14e6	1.17e6
Cpr23B (Cuticular protein 23B)	DRSC00555	1.67e6	1.64e6	1.11e6	1.27e6
CG1371	DRSC06409	1.30e6	1.35e6	1.16e6	1.18e6
Synd (Syndapin)	DRSC15116	1.38e6	1.55e6	9.10e5	9.68e5
Roc2 (Regulator of cullins 2)	DRSC07313	1.61e6	1.59e6	1.27e6	1.31e6
Ip6k (Inositol hexakisphosphate kinase)	DRSC04054	9.30e5	1.01e6	7.67e5	6.23e5
CG32437	DRSC11760	1.37e6	1.56e6	1.21e6	1.32e6
l(2)k09022 (lethal (2) k09022)	DRSC02108	1.23e6	1.41e6	5.73e5	7.51e5
CG33136	DRSC05744	6.05e5		6.50e5	
CG8420	DRSC16418	1.76e6	1.94e6	1.24e6	1.44e6
CG1418	DRSC06447	1.61e6	1.54e6	1.33e6	1.41e6
nompA (no mechanoreceptor potential A)	DRSC06329	1.55e6	1.52e6	1.18e6	1.33e6
mam (mastermind)	DRSC05468	6.59e5 (active)	6.20e5	4.27e5	5.53e5
mam (mastermind)	DRSC07648	8.75e5 (active)	1.27e6	5.43e5	5.92e5
CG3604	DRSC00618	1.51e6	1.47e6	1.16e6	1.30e6
D2hgdh (D-2-hydroxyglutaric acid dehydrogenase)	DRSC18577	5.49e5		8.30e5	
